Patent US20210292765A1, “COMPOSITIONS COMPRISING INTERMEDIATE NON-CODING RNA REGULATORS MODULATING THE EXPRESSION OF ETV6 OR FOXO1 AND USES THEREOF” (University of Exeter, priority 2018, published 2021)
For at least one compound, name, drawing or mass did not settle the structure.

How the values were obtained:
Format in all cases: cell-based
[1] = system: late passage primary human fibroblast cells; experiment: SASP protein levels in culture medium (MesoScale multiplex ELISA); details: both low and high dose
Experimental: Late passage primary human fibroblast cells at PD=63 were seeded at 6×10^4 cells per well in a 6 well plate, cultured for 10 days and then treated with at 1 μM or 10 μM trametinib (MEK/ERK inhibitor) or SH-6 (AKT inhibitor) for 24 hours. Cell supernatants were then harvested and stored at −80° C. Levels of GMCSF, IFNγ, IL1β, IL2, IL6, IL8, IL10, IL-12p70, and TNFα SASP components were measured in cell supernatants from treated and vehicle-only control cells using the K15007B MesoScale Discovery multiplex ELISA immunoassay (MSD, Rockville, USA) in 4 biological replicates. Proteins were quantified relative to a standard curve using a Sector Imager SI-6000 according to the manufacturer's instructions.

[2] = system: late passage primary human fibroblasts; experiment: Cellular senescence by SA-β-Gal staining; details: 1 μM and 10 μM
[3] = system: late passage primary human fibroblasts; experiment: CDKN2A (p16) and CDKN1A (p21) expression by qRTPCR; details: 1 μM and 10 μM

CC(=O)Nc1cccc(-n2c(=O)n(C3CC3)c(=O)c3c(Nc4ccc(I)cc4F)n(C)c(=O)c(C)c32)c1 [Trametinib, trametinib]
levels of secreted SASP proteins [1]: Reduction in levels of several secreted SASP proteins | senescent cell population by SA-β-Gal staining [2]: small but robust decrease | expression of p16 [3]: decrease | expression of p21 [3]: decrease
